# Assay results: publication PMC7819943, “Rice protein-binding microarrays: a tool to detect cis-acting elements near promoter regions in rice”
# Sequences of proteins named here, by UniProt entry; tags and fusion partners are left off.
# UniProt Q0JBA9, entry or part of it: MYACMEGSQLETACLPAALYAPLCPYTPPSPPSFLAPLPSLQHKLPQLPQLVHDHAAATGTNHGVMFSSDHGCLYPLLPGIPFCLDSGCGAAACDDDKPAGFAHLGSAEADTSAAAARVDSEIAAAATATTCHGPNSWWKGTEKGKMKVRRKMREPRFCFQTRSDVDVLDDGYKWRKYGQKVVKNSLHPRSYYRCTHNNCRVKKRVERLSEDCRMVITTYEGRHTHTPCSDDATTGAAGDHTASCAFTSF
# The list shows a part of the results.
# Biological target: OsWRKY34 (Oryza sativa, UniProt Q0JBA9 1-250)
# Test: protein-binding microarray (RPBM); PBS, 2% BSA, 51.3 ng/ul salmon testes DNA, 50 uM zinc acetate, 200 nM TF, 25 C, 1 h; high values mean tight binding
# Details: protein: recombinant; tags: N-terminal polyhistidine and DsRed monomer fusion (pET32a); label: CyDye5-dUTP incorporated in the synthesized complementary strand; 3' TTTTT single-stranded linker to array surface; dsDNA, one strand shown
# In short: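 In PBS with 2% BSA, salmon testes DNA and 50 µM zinc acetate, 200 nM protein was incubated on a custom Agilent array at 25 °C for 1 h and then washed off. The array had been made double-stranded by primer extension with Cy5-dUTP and blocked with 2% BSA. The proteins were transcription factors fused N-terminally to polyhistidine and DsRed, expressed in E. coli BL21-CodonPlus and purified on Ni–NTA. The binding signal is per-feature fluorescence intensity (arbitrary units) from an Axon 4000B scanner.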
row,Sequence,binding signal
1,AGCCGCCGCCGCCTCCTCTCGTCGCCGGCCGTCGTCGGACCGGAGTCACCTAGTGCAG,8420 fluorescence intensity (a.u.)
2,ACTCTTTTCTTCTCCAACACTGTCCCTTCCCGTCTTTCTCCGGAGTCACCTAGTGCAG,8820 fluorescence intensity (a.u.)
3,TGCTGAGGTTCCTATCCATTTCATAATGCAAACCTGACTTCGGAGTCACCTAGTGCAG,8920 fluorescence intensity (a.u.)
4,CAACCCACCGGTTCACTCCGTCTCCACTGCACGACCAAGTCGGAGTCACCTAGTGCAG,9050 fluorescence intensity (a.u.)
5,CTTCCCTAAATGTTTGACACCGTTGACTTTTTAAAATATACGGAGTCACCTAGTGCAG,10500 fluorescence intensity (a.u.)
6,ACGTGGCCAAACGACGCCATCCAAGCCGCCCGTTCTCGACCGGAGTCACCTAGTGCAG,8360 fluorescence intensity (a.u.)
7,ACCACCACATCACATTATCCCCGTGCCGTCCAATCCAACGCGGAGTCACCTAGTGCAG,9590 fluorescence intensity (a.u.)
8,CCACCTTTGGCAGCTCACAGCTCGCATCGGCGCGCAAACCCGGAGTCACCTAGTGCAG,8100 fluorescence intensity (a.u.)
9,GGATCTAGCGTCTCCGCTTTTCATCGGGTCAACTCTTGCCCGGAGTCACCTAGTGCAG,9540 fluorescence intensity (a.u.)
10,TTTTGGTGGGTGGGTTTGGGACGTTGGATTGGTGGTGGACCGGAGTCACCTAGTGCAG,12600 fluorescence intensity (a.u.)
11,AAAATCCCACCCGCTTCTTTCTTCTCCGAATTTTCCCTTTCGGAGTCACCTAGTGCAG,10700 fluorescence intensity (a.u.)
12,CCTGGTCTTTGATTGGTCCACGTGGCGCAGCGAGAATTCACGGAGTCACCTAGTGCAG,8230 fluorescence intensity (a.u.)
13,GCCTGCCGCCCTCCCATCGCCGCTCCGCCCGCCGACTGTCCGGAGTCACCTAGTGCAG,8490 fluorescence intensity (a.u.)
14,GCTGAACAGGGGAGGGGCGGCGATCTCTATCTGGCGAGCACGGAGTCACCTAGTGCAG,13300 fluorescence intensity (a.u.)
15,ACTCCGTTGTCTCCGCCTCCGATCTCCGGCGACGAGCGGCCGGAGTCACCTAGTGCAG,8650 fluorescence intensity (a.u.)
16,CCCACACCACCTCGCCCAATTAAACCCTCACCCATTCTTTCGGAGTCACCTAGTGCAG,9140 fluorescence intensity (a.u.)
17,ACTGCGTACGCACTGCCTGCATATATATTTTTAATTGGGACGGAGTCACCTAGTGCAG,8380 fluorescence intensity (a.u.)
18,TCATTCAATGAGTAACGGTATAATTATTTTTTTCTCAACCCGGAGTCACCTAGTGCAG,8810 fluorescence intensity (a.u.)
19,CACTCACCCAGTTTTGCTGCTGCTGCTGCTCGTCTTCCTCCGGAGTCACCTAGTGCAG,8390 fluorescence intensity (a.u.)
20,AATTGACTGGTTTAATCTCTGTTCGTACCCAAAATATAGCCGGAGTCACCTAGTGCAG,8840 fluorescence intensity (a.u.)
21,GCCCGCCACGGCCACGCGCCAGTAGCTGCAGCGTTGTCTCCGGAGTCACCTAGTGCAG,8580 fluorescence intensity (a.u.)

row,Sequence,binding signal
1,CTCGCTAACTCACAAGCACAATCCTAACACATTCTCATAACGGAGTCACCTAGTGCAG,8760 fluorescence intensity (a.u.)
2,TTTTGACATTAATCTCTTGGTGTTCTTCTCTTTGTCTGCTCGGAGTCACCTAGTGCAG,8870 fluorescence intensity (a.u.)
3,TTTAATTAATCCCGTCTCCTCATTCGTCGCCGCCCTCGCACGGAGTCACCTAGTGCAG,8540 fluorescence intensity (a.u.)
4,TAGCCATTTTTCTCCTCGGTTTCTCCTCTCCTCAACTCAACGGAGTCACCTAGTGCAG,8940 fluorescence intensity (a.u.)
5,GCGCTACGGACGGAAGAGACGGAGTGGCACGGAATAAAGACGGAGTCACCTAGTGCAG,61600 fluorescence intensity (a.u.)
6,TCGTCGGCTTCCTCTCGCCGCACCCATCGATATCCATCTCCGGAGTCACCTAGTGCAG,9400 fluorescence intensity (a.u.)
7,CGTATCACCCACTCTCCTTTTAATGTTATTAGCATTGACCCGGAGTCACCTAGTGCAG,10000 fluorescence intensity (a.u.)
8,CAAAGAGGTGACCATCCGGTTTCGTCTCCGTTTCGTCTTCCGGAGTCACCTAGTGCAG,8070 fluorescence intensity (a.u.)
9,CTAATTAGTACTGCAATTTTGGGTCCTTGGGTTGTTAGAACGGAGTCACCTAGTGCAG,16900 fluorescence intensity (a.u.)
10,TCTTCTGTCAAAAAGACACTACATTCTCTTATACCCATCACGGAGTCACCTAGTGCAG,9560 fluorescence intensity (a.u.)
11,CCATCGCCGAGCAGTCAACGAGCAAGTTAAATTCGCAGCACGGAGTCACCTAGTGCAG,10700 fluorescence intensity (a.u.)
12,TCAAGCTTCTGTTTTACTACTAGTACAATCCTTTTTTTTTCGGAGTCACCTAGTGCAG,12400 fluorescence intensity (a.u.)
13,TCCTCCTCGTGCTCGCCCTCGCCGCGCTCGCCGAGGCCCTCGGAGTCACCTAGTGCAG,9330 fluorescence intensity (a.u.)
14,ACGATCCAGACAGGCAGACAAGCAGATTGACCGATTCACCCGGAGTCACCTAGTGCAG,8510 fluorescence intensity (a.u.)
15,CATATTTGCATCATCGTTCCACTTATACTTATTCGAGCTACGGAGTCACCTAGTGCAG,9460 fluorescence intensity (a.u.)
16,ACCTAGAAGTTTCAACCGTCGTTGACTATGACAACAGTCGCGGAGTCACCTAGTGCAG,11700 fluorescence intensity (a.u.)
17,TGTACTAAAAAGTCAACGGCGTCAAACATTTCGAAACGGACGGAGTCACCTAGTGCAG,8400 fluorescence intensity (a.u.)
18,GTGGGGTTTGTTTTTTCTCCGAGCGGCCCCGTTGAGACTTCGGAGTCACCTAGTGCAG,13600 fluorescence intensity (a.u.)
19,GGAACGTGGCAACTGACACGTCTCGACCTTTTTTGTTGCACGGAGTCACCTAGTGCAG,8420 fluorescence intensity (a.u.)
20,ATTTTGCATGGGGCATGTGTGAAGTGTCCTACTAAATTTTCGGAGTCACCTAGTGCAG,9350 fluorescence intensity (a.u.)
21,CTCCTTAACCTGCTCCATCAGCGCACCCCACACGCACTTCCGGAGTCACCTAGTGCAG,10400 fluorescence intensity (a.u.)

# In another format: results already given.
row	Sequence	binding signal
15	CATATTTGCATCATCGTTCCACTTATACTTATTCGAGCTACGGAGTCACCTAGTGCAG	9460 fluorescence intensity (a.u.)
16	ACCTAGAAGTTTCAACCGTCGTTGACTATGACAACAGTCGCGGAGTCACCTAGTGCAG	11700 fluorescence intensity (a.u.)
